Source: PubChem BioAssay AID602196 (INSERM, 2012)
The deposit covers about 23,000 reagents; shown is a random part of them. Of all reagents, 455 (2%) are marked active. 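Active includes both protection and sensitisation; some change values fall well beyond the stated -50 to +50 range.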 A number with no mark means an inactive call. Reagents against one gene are numbered here. Not given: the amount of reagent.

- Screen: 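Genes whose knock-down alters cisplatin killing of lung cancer cells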
- Cells: human A549 lung cancer cells
- Knock-down reagent: siRNA pair against human genes
- Time to read-out: 48 h transfection before cisplatin; time from cisplatin to read-out not stated
- Treatment: cisplatin at a dose killing half of control-siRNA cells; exact dose and duration not given
- Detection: 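Cisplatin cell death as a shift from the 50% death seen with control siRNA; siRNAs toxic or growth-blocking alone scored 0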
- Direction: two-siRNA summed score (-2 to +2): higher = both siRNAs protect from cisplatin killing; -2 means both sensitise; mean protection from cisplatin (shift in death) and protection from cisplatin (shift in death), siRNA C and protection from cisplatin (shift in death), siRNA D: higher = protection from cisplatin killing
- Call rule: 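Each siRNA scores 0 if harmful alone by LDH or WST-1, otherwise +1 if it reduces and -1 if it increases cisplatin killing; a gene is active when both siRNAs agree (sum +2 or -2)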
- Meaning of the calls: active = both siRNAs shift cisplatin killing the same way; inactive = no consistent shift, or siRNA harmful alone

no.	Gene	reagent	two-siRNA summed score (-2 to +2)	mean protection from cisplatin (shift in death) (%)	protection from cisplatin (shift in death), siRNA C (%)	protection from cisplatin (shift in death), siRNA D (%)
1	LOC401151	1	0	2.1	4.3	-0.1
2	LOC401025	1	0	9.3	7.7	10.8
3	MRPL55 (GeneID 128308)	1	0	1.5	0.3	2.8
4	VMA22 (GeneID 84317)	1	0	0.1	4.6	-4.5
5	POLA2 (GeneID 23649)	1	-1	-5.9	-13.5	1.6
6	DDX20 (GeneID 11218)	1	0	6.3	3.8	8.9
7	VPS4A (GeneID 27183)	1	0	8.6	9.5	7.7
8	PFKM (GeneID 5213)	1	0	2.8	0.7	4.8
9	FAM120A (GeneID 23196)	1	0	10.8	12.8	8.8
10	LOC440143	1	0	9.8	10.1	9.4
11	ADGRG3 (GeneID 222487)	1	1	5.3	-0.3	10.9
12	CERT1 (GeneID 10087)	1	0	-4.4	-10.8	2
13	LOC389127	1	1	12.7	7.6	17.8
14	CNTRL (GeneID 11064)	1	-1	-19.6	3.8	-43
15	LTBP2 (GeneID 4053)	1	0	-2.8	5.6	-11.2
16	EIF2S3 (GeneID 1968)	1	0	2	-5.1	9.1
17	LOC441886	1	0	6.7	4.7	8.8
18	MRFAP1 (GeneID 93621)	1	0	-7.5	-13.2	-1.9
19	KIAA1726	1	0	11.1	15.6	6.5

Continued (6 carried over from the part before).
no.	Gene	reagent	two-siRNA summed score (-2 to +2)	mean protection from cisplatin (shift in death) (%)	protection from cisplatin (shift in death), siRNA C (%)	protection from cisplatin (shift in death), siRNA D (%)
14	CNTRL (GeneID 11064)	1	-1	-19.6	3.8	-43
15	LTBP2 (GeneID 4053)	1	0	-2.8	5.6	-11.2
16	EIF2S3 (GeneID 1968)	1	0	2	-5.1	9.1
17	LOC441886	1	0	6.7	4.7	8.8
18	MRFAP1 (GeneID 93621)	1	0	-7.5	-13.2	-1.9
19	KIAA1726	1	0	11.1	15.6	6.5
20	CALR (GeneID 811)	1	0	-14.4	-24.7	-4.1
21	MST1R (GeneID 4486)	1	0	1.5	24.1	-21.1
22	BCDIN3D (GeneID 144233)	1	0	-7	2.1	-16.2
23	SSH3 (GeneID 54961)	1	0	-2.9	-4.9	-0.9
24	CSAG1 (GeneID 158511)	1	2 (active)	19.4	18.9	19.9
25	LINC00863 (GeneID 439994)	1	0	8	22	-6.1
26	COLGALT2 (GeneID 23127)	1	0	4.9	4.7	5
27	RSPH10B (GeneID 222967)	1	0	-11	-4	-18.1
28	KLRB1 (GeneID 3820)	1	0	0.5	8.6	-7.6
29	LOC439978	1	0	9.5	5.4	13.6
30	OR52N1 (GeneID 79473)	1	0	-2.9	-9.3	3.6
31	DNAH6 (GeneID 1768)	1	0	-3.3	-3.3	-3.3
32	LOC441797	1	0	15.2	8.6	21.8
33	LOC440959	1	0	7.4	2.8	11.9
34	PEX19 (GeneID 5824)	1	0	-2.7	-2.6	-2.9
35	SNTB2 (GeneID 6645)	1	0	16.5	21.6	11.4
36	CRYGB (GeneID 1419)	1	1	1.8	14.4	-10.8
37	SSR1 (GeneID 6745)	1	2 (active)	20.7	22.9	18.5
38	TRIM7 (GeneID 81786)	1	0	3.9	14.1	-6.3
39	LOC391784	1	1	29.5	20.5	38.5
40	SLC17A6 (GeneID 57084)	1	0	13.7	13.7	13.8
41	TMEM102 (GeneID 284114)	1	-1	-9.4	-6.9	-11.9
42	CYP2U1 (GeneID 113612)	1	0	18.2	14.3	22.1
43	CNN2 (GeneID 1265)	1	0	5.5	1.5	9.5
44	FLJ40288 (GeneID 286023)	1	1	22.1	12.2	32.1
45	PCDHGB2 (GeneID 56103)	1	0	-3.1	-11.8	5.6
46	ZNF674-AS1 (GeneID 401588)	1	0	11.4	15.2	7.6
47	HLA-DRB3 (GeneID 3125)	1	0	10.3	6.3	14.2
48	SDHAF2 (GeneID 54949)	1	0	-2.5	-3.7	-1.2
49	MX2 (GeneID 4600)	1	0	-4.5	0	-9.1
50	LOC389822	1	0	24.7	20.4	29
51	LOC402641 (GeneID 402641)	1	0	0.2	6	-5.6
52	FGFBP1 (GeneID 9982)	1	0	4	0.1	7.8
53	HDAC7 (GeneID 51564)	1	0	-29.1	-36.2	-22.1
54	SNX29 (GeneID 92017)	1	0	3.7	6.2	1.2
55	SNX29 (GeneID 92017)	2	0	6.3	7.4	5.2
56	NEMF (GeneID 9147)	1	1	7.7	19.8	-4.4
57	TENM1 (GeneID 10178)	1	1	14.8	20	9.5
